Test results published in article PMC4099368.
Numbering of substitutions follows the chain as printed. These are yes or no findings as the source states them, for the method shown. In cells and extracts the contact can be indirect. Some results given as binding are weak or reduced against the parent protein; the word gives no strength. Sequences can lack the tags named with a protein.

Protein sequences, listed by entry. Tags and fused reporters are not part of them. Residues count along the entry.
UniProt P43694, residues 200-254: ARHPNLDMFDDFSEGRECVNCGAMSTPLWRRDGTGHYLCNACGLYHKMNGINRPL

Legend:
[1] = molecular target: T1, GST-ZFPM2/FOG2 p.E30G (human) (UniProt Q8WW38); assay: pull-down; GST-ZFPM2/FOG2 (wild type or mutant) bound to 200 µl glutathione resin (Pierce GST Protein Interaction Pull-Down kit), incubated with GATA4 fragment at 4°C; washed with 25 mM Tris-HCl pH 7.2, 150 mM NaCl; eluate on SDS-PAGE, Coomassie staining
T1 sequence: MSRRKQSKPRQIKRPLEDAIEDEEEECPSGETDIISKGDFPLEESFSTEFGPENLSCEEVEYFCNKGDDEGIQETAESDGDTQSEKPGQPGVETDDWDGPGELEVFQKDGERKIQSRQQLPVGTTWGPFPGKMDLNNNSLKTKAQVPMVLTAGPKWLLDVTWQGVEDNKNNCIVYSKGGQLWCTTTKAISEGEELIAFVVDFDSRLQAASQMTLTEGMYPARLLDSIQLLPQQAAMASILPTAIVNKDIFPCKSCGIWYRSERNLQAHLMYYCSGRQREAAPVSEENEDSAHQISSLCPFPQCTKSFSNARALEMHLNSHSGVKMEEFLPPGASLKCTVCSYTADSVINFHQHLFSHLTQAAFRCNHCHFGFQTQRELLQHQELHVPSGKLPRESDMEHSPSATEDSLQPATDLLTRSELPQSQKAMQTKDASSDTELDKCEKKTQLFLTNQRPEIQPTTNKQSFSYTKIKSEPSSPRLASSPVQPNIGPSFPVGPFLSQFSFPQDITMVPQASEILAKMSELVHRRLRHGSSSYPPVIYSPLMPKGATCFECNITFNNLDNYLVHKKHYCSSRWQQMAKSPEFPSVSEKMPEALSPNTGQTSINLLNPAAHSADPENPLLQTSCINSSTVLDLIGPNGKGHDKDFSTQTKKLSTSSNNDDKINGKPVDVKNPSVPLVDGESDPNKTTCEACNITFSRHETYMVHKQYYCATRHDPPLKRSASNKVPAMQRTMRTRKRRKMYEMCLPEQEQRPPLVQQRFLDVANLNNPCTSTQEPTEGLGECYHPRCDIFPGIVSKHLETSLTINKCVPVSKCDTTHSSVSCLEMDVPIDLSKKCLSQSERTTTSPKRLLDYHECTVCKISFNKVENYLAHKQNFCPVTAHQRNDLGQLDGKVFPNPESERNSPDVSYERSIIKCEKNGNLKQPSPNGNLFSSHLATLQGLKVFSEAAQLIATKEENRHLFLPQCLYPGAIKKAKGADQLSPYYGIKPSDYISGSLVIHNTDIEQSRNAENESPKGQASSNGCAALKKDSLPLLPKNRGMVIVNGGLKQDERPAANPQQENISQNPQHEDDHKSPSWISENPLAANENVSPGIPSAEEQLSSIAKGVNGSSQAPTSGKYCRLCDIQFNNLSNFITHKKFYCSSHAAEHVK

[2] = molecular target: T2, GST-ZFPM2/FOG2 p.T843M (human) (UniProt Q8WW38); assay: as above
T2 sequence: T1 sequence with G30E, T843M

For “N-terminal zinc-finger sequence of GATA4 (residues 200-254) (from UniProt P43694 200-254) (domain or fragment)”, the binding [1] was “binds” and the binding [2] was “binds”.
